Source: PubChem BioAssay AID1259254 (NCATS, 2017)

Test: 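Gene knock-downs that lead to re-replication, shown by excess G2 DNA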 (primary screen)
Cells: human HCT116 colorectal cancer cells
Reagent: single siRNA against human genes
Time to read-out: 3 days
Read-out: 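Nuclei stained with Hoechst and imaged; cell-cycle phase assigned by DNA content; G2 share scaled per plate, non-targeting siRNA 0%, GMNN siRNA 100%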
Scale: G2 robust z-score: higher = more G2 cells, more excess DNA replication
Active means: 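Active siRNAs have a G2 robust z of 5 or more median absolute deviations over the median, which in these data means about 38% or higher of GMNN control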
The whole screen tested about 59,000 reagents; shown is an unselected part. About 1,550 of all reagents (2.6%) were called active. 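G2 share is only a proxy for re-replication; each gene was hit by three separate siRNAs, and active genes were retested.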 The numbers tell different reagents against one gene apart. Further read-outs or replicates are left out here. The record does not give: the amount of reagent.

How did the screen score IFI6 (GeneID 2537) #1?
G2 robust z-score: 0.538; Call: inactive

With IFI6 (GeneID 2537) #2, what was measured?
G2 robust z-score: 2.02; Call: inactive

Which result is listed for IFI6 (GeneID 2537) #3?
G2 robust z-score: 0.253; Call: inactive

For TMSB4X (GeneID 7114) #1, what was measured?
G2 robust z-score: 1.76; Call: inactive

Which result is listed for TMSB4X (GeneID 7114) #2?
G2 robust z-score: 0.905; Call: inactive

What did the screen give for TMSB4X (GeneID 7114) #3?
G2 robust z-score: -0.198; Call: inactive

What is on record for PNPLA4 (GeneID 8228) #1?
G2 robust z-score: 2.9; Call: inactive

What is on record for PNPLA4 (GeneID 8228) #2?
G2 robust z-score: -0.217; Call: inactive

How did the screen score PNPLA4 (GeneID 8228) #3?
G2 robust z-score: 2.07; Call: inactive

How did the screen score PEA15-AS1 (GeneID 729867) #1?
G2 robust z-score: 0.041; Call: inactive

Which result is listed for PEA15-AS1 (GeneID 729867) #2?
G2 robust z-score: -0.0684; Call: inactive

For PEA15-AS1 (GeneID 729867) #3, how do the results read?
G2 robust z-score: 0.858; Call: inactive

What is on record for UBE2D2 (GeneID 7322) #1?
G2 robust z-score: -0.0558; Call: inactive

For UBE2D2 (GeneID 7322) #2, what was measured?
G2 robust z-score: -0.142; Call: inactive

For UBE2D2 (GeneID 7322) #3, how do the results read?
G2 robust z-score: 0.764; Call: inactive

For BAIAP2L1 (GeneID 55971) #1, what does the deposit list?
G2 robust z-score: 0.0887; Call: inactive

With BAIAP2L1 (GeneID 55971) #2, how do the results read?
G2 robust z-score: 1.57; Call: inactive

With BAIAP2L1 (GeneID 55971) #3, what does the deposit list?
G2 robust z-score: -0.769; Call: inactive

How did the screen score TAF1C (GeneID 9013) #1?
G2 robust z-score: -0.0648; Call: inactive

How did the screen score TAF1C (GeneID 9013) #2?
G2 robust z-score: 0.874; Call: inactive

How did the screen score TAF1C (GeneID 9013) #3?
G2 robust z-score: -0.75; Call: inactive

What is on record for HACD2 (GeneID 201562) #1?
G2 robust z-score: -0.384; Call: inactive

How did the screen score HACD2 (GeneID 201562) #2?
G2 robust z-score: -0.589; Call: inactive

What is on record for HACD2 (GeneID 201562) #3?
G2 robust z-score: -0.754; Call: inactive

With ACSM2A (GeneID 123876) #1, what was measured?
G2 robust z-score: 0.0976; Call: inactive

What did the screen give for ACSM2A (GeneID 123876) #2?
G2 robust z-score: -0.267; Call: inactive

For ACSM2A (GeneID 123876) #3, what was measured?
G2 robust z-score: 2.24; Call: inactive

For DICER1 (GeneID 23405) #1, what was measured?
G2 robust z-score: -0.133; Call: inactive

Which result is listed for DICER1 (GeneID 23405) #2?
G2 robust z-score: 1.31; Call: inactive

Which result is listed for DICER1 (GeneID 23405) #3?
G2 robust z-score: 4.18; Call: inactive

In a second layout: results already given.
gene	reagent	G2 robust z-score	Call
PEA15-AS1 (GeneID 729867)	2	-0.0684	inactive
PEA15-AS1 (GeneID 729867)	3	0.858	inactive
UBE2D2 (GeneID 7322)	1	-0.0558	inactive
